Data source: PubChem BioAssay AID743121 (NCATS, 2013)
Here is one part, drawn at random, of about 26,000 reagents. Of all reagents, 167 (0.63%) were called active. 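Calls are per gene from RSA p-values that are not deposited; an individual active-marked siRNA can sensitise only weakly.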 Entries without a mark were called inactive. Reagents against one gene are numbered here.

Screen: 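Knock-downs that sensitise breast cancer cells to camptothecin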 (primary screen)
Cell system: MDA-MB-231 cells, a human breast cancer line
Knock-down reagent: single siRNA against human genes, 20 nM siRNA (0.8 pmol per well)
Timing: 120 h (drug added 48 h after transfection, read 72 h later)
Conditions: camptothecin 20 nM (about EC30) for 72 h; vehicle 0.1% DMSO in parallel plates
Detection: 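CellTiter-Glo ATP signal, scaled to control siRNA as percent viability; sensitisation given as log2 of untreated divided by camptothecin-treated viability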
Reading the numbers: log2 vehicle/camptothecin viability: higher = stronger sensitisation to camptothecin; viability with camptothecin and viability without drug: higher = more viable cells
Rule for the call: 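Each gene scored by redundant siRNA activity (RSA) over its individual siRNA ratios; a gene is called active at p < 0.001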

target gene | reagent no. | log2 vehicle/camptothecin viability | viability with camptothecin (% of control) | viability without drug (% of control)
CSNK1D | 1 | 1.38 | 15.4 | 40
CSNK1D | 2 | 0.0469 | 57.9 | 59.8
CSNK1D | 3 | -0.296 | 78.7 | 64.1
CSNK1D | 4 | -0.204 | 110 | 95.4
GALNS | 1 | -0.0688 | 53 | 50.5
GALNS | 2 | 0.54 | 4.51 | 6.56
GALNS | 3 | -0.965 | 51.2 | 26.2
GALNS | 4 | 0.00543 | 74.6 | 74.8
AGBL4 | 1 | -0.218 | 75.7 | 65.1
AGBL4 | 2 | -0.0782 | 94.5 | 89.6
AGBL4 | 3 | -0.588 | 38.1 | 25.3
AGBL4 | 4 | -0.324 | 78.1 | 62.4
RHOA | 1 | -0.745 | 82.4 | 49.2
RHOA | 2 | -0.266 | 32 | 26.6
RHOA | 3 | -0.473 | 26.4 | 19
RNF113B | 1 | -0.255 | 47.5 | 39.8
RNF113B | 2 | -0.128 | 39.6 | 36.3
RNF113B | 3 | -0.316 | 87.7 | 70.4
RNF113B | 4 | -0.00267 | 81.9 | 81.7
UBE2V2 | 1 | 0.428 | 37.2 | 50
UBE2V2 | 2 | 0.0559 | 93.9 | 97.6
UBE2V2 | 3 | -0.274 | 107 | 88.7
UBE2V2 | 4 | 0.275 | 46 | 55.6

Next part; the last 4 above are carried over.
target gene | reagent no. | log2 vehicle/camptothecin viability | viability with camptothecin (% of control) | viability without drug (% of control)
UBE2V2 | 1 | 0.428 | 37.2 | 50
UBE2V2 | 2 | 0.0559 | 93.9 | 97.6
UBE2V2 | 3 | -0.274 | 107 | 88.7
UBE2V2 | 4 | 0.275 | 46 | 55.6
TMPRSS11A | 1 | -0.176 | 112 | 99.2
TMPRSS11A | 2 | -0.535 | 67.8 | 46.8
TMPRSS11A | 3 | -0.0495 | 99.5 | 96.2
PLA2G2A | 1 | -0.0271 | 65 | 63.8
PLA2G2A | 2 | -0.602 | 67.8 | 44.6
PLA2G2A | 3 | -0.229 | 77.1 | 65.8
PLA2G2A | 4 | 1.09 | 15.1 | 32.1
ATP6V1C1 | 1 | 0.633 | 42.1 | 65.2
ATP6V1C1 | 2 | -0.263 | 80.7 | 67.3
ATP6V1C1 | 3 | -0.467 | 90.2 | 65.3
PTPRB | 1 | 0.0384 | 45.8 | 47.1
PTPRB | 2 | -0.0316 | 72.2 | 70.7
PTPRB | 3 | 0.0948 | 98.9 | 106
PTPRB | 4 | -0.507 | 76.1 | 53.6
RIOX1 | 1 | -0.59 | 68.7 | 45.6
RIOX1 | 2 | -0.231 | 71.2 | 60.6
RIOX1 | 3 | 0.171 | 97.1 | 109
RIOX1 | 4 | 0.305 | 36 | 44.5
ADGRG6 | 1 | -0.327 | 86 | 68.5
ADGRG6 | 2 | -0.285 | 121 | 99.2
ADGRG6 | 3 | -0.0812 | 82.9 | 78.3
ADGRG6 | 4 | -0.613 | 110 | 72
CLEC2B | 1 | -0.256 | 56.7 | 47.5
CLEC2B | 2 | -0.281 | 83.9 | 69.1
CLEC2B | 3 | -0.204 | 58.1 | 50.4
